The list shows a part of the results. The data scatter; read single values as rough.
These targets were tested with ClCC(=O)N[C@@H]1CCCc2ccccc12 (assay: log2 mean competition ratio of IA-DTB cysteine labelling (DMSO/compound) (log2 ratio); higher = stronger cysteine engagement by compound). Settings: 50 µM; treatment time: 4 h; cell line lysate: HEK293T.
Procedure: (§1)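 IA-DTB competitive cysteine chemoproteomics in HEK293T RIPA lysate. Lysates were treated with compound 29 or 30 at 50 or 200 µM for 4 h, then IA-DTB (500 µM, 1 h), trypsin-digested, NeutrAvidin-enriched and analysed by diaPASEF. Competition ratio = intensity DMSO / intensity compound (n=4 treated, n=64 DMSO); binding: mean log2 CR ≥ 1 and p ≤ 0.05 plus QC filters. Target is the cysteine site.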

Target | log2 mean competition ratio
NIPBL C2374 (UniProt Q6KC79) | 0.496
NCAPH2 C184 (UniProt Q6IBW4) | 0.214
NCOR2 C866 | 0.0396
NOPCHAP1 C13 | 0.0736
NIT2 C153 (UniProt Q9NQR4) | 0.0977
NCKIPSD C138 (UniProt Q9NZQ3) | -0.304
NF1 C434 (UniProt P21359) | 0.14
NIT2 C44 (UniProt Q9NQR4) | 0.099
NEDD1 C314 (UniProt Q8NHV4) | 0.306
NKRF C386 (UniProt O15226) | 0.0355
NME2 C145 (UniProt P22392) | -0.064
NCAPG C177 (UniProt Q9BPX3) | -0.182
NFKBIB C6 (UniProt Q15653) | -0.0937
NEK4 C466 (UniProt P51957) | 0.11
NLRX1 C481 (UniProt Q86UT6) | -0.0422
NFKB2 C4 (UniProt Q00653) | 0.0884
NATD1 C17 (UniProt Q8N6N6) | 0.145
NOP14 C580 (UniProt P78316) | 0.318
NEK3 C504 (UniProt P51956) | 0.182

Target | log2 mean competition ratio
NOSIP C185 (UniProt Q9Y314) | 0.0562
NBEA C369 (UniProt Q8NFP9) | 0.0559
NEU3 C90 (UniProt Q9UQ49) | 0.0423
NDC80 C528 (UniProt O14777) | -0.56
NEDD1 C66 (UniProt Q8NHV4) | 0.575
NFKB2 C738 (UniProt Q00653) | -0.179
NBAS C897 (UniProt A2RRP1) | 0.39
NLRX1 C331 (UniProt Q86UT6) | 0.44
NIBAN2 C466 (UniProt Q96TA1) | 0.0336
NINL C1009 | -0.0439
NCAPD3 C361 (UniProt P42695) | 0.144
NDUFAF7 C148 (UniProt Q7L592) | -0.407
NIT1 C203 (UniProt Q86X76) | 0.374
NOL6 C486 (UniProt Q9H6R4) | 0.411
NKD2 C229 | 0.0495
NEMP1 C434 (UniProt O14524) | 0.146
NDUFB10 C119 (UniProt O96000) | 0.125
NIPBL C2557 (UniProt Q6KC79) | -0.139

Same assay, conditions: 200 µM; treatment time: 4 h; cell line lysate: HEK293T

Target | log2 mean competition ratio
NIPBL C2374 (UniProt Q6KC79) | 0.224
NCAPH2 C184 (UniProt Q6IBW4) | -0.179
NCOR2 C866 | -0.146
NOPCHAP1 C13 | -0.165
NIT2 C153 (UniProt Q9NQR4) | 0.0331
NCKIPSD C138 (UniProt Q9NZQ3) | 0.289
NF1 C434 (UniProt P21359) | 0.0419
NIT2 C44 (UniProt Q9NQR4) | 0.106
NEDD1 C314 (UniProt Q8NHV4) | -0.217
NKRF C386 (UniProt O15226) | 0.135
NME2 C145 (UniProt P22392) | -0.212
NCAPG C177 (UniProt Q9BPX3) | -0.0928
NFKBIB C6 (UniProt Q15653) | 0.378
NEK4 C466 (UniProt P51957) | 0.00587
NLRX1 C481 (UniProt Q86UT6) | -0.0932
NFKB2 C4 (UniProt Q00653) | -0.605
NATD1 C17 (UniProt Q8N6N6) | 0.0084
NOP14 C580 (UniProt P78316) | -0.278
NEK3 C504 (UniProt P51956) | 0.119

Target | log2 mean competition ratio
NOSIP C185 (UniProt Q9Y314) | -0.0327
NBEA C369 (UniProt Q8NFP9) | -0.342
NEU3 C90 (UniProt Q9UQ49) | -0.0613
NDC80 C528 (UniProt O14777) | -0.0935
NEDD1 C66 (UniProt Q8NHV4) | 0.313
NFKB2 C738 (UniProt Q00653) | 0.18
NBAS C897 (UniProt A2RRP1) | 0.0666
NLRX1 C331 (UniProt Q86UT6) | -0.202
NIBAN2 C466 (UniProt Q96TA1) | 0.135
NINL C1009 | -0.0222
NCAPD3 C361 (UniProt P42695) | -0.41
NDUFAF7 C148 (UniProt Q7L592) | -0.359
NIT1 C203 (UniProt Q86X76) | 0.0667
NOL6 C486 (UniProt Q9H6R4) | -0.731
NKD2 C229 | 0.555
NEMP1 C434 (UniProt O14524) | -0.224
NDUFB10 C119 (UniProt O96000) | 0.311
NIPBL C2557 (UniProt Q6KC79) | -0.0445

What follows are targets tested with ClCC(=O)N[C@H]1CCCc2ccccc12 in the same assay as above. Settings: 50 µM; treatment time: 4 h; cell line lysate: HEK293T.
Procedure: as §1

Target | log2 mean competition ratio
NIPBL C2374 (UniProt Q6KC79) | -0.176
NCAPH2 C184 (UniProt Q6IBW4) | 0.0829
NCOR2 C866 | -0.143
NOPCHAP1 C13 | 0.0191
NIT2 C153 (UniProt Q9NQR4) | -0.0591
NCKIPSD C138 (UniProt Q9NZQ3) | -0.0915
NF1 C434 (UniProt P21359) | -0.0151
NIT2 C44 (UniProt Q9NQR4) | 0.274
NEDD1 C314 (UniProt Q8NHV4) | 0.282
NKRF C386 (UniProt O15226) | -0.449
NME2 C145 (UniProt P22392) | 0.028
NCAPG C177 (UniProt Q9BPX3) | 0.621
NFKBIB C6 (UniProt Q15653) | 0.0643
NEK4 C466 (UniProt P51957) | 0.168
NLRX1 C481 (UniProt Q86UT6) | -0.376
NFKB2 C4 (UniProt Q00653) | 0.0676
NATD1 C17 (UniProt Q8N6N6) | -0.0382
NOP14 C580 (UniProt P78316) | -0.14
NEK3 C504 (UniProt P51956) | 0.0203

Target | log2 mean competition ratio
NOSIP C185 (UniProt Q9Y314) | -0.0781
NBEA C369 (UniProt Q8NFP9) | 0.2
NEU3 C90 (UniProt Q9UQ49) | 0.0727
NDC80 C528 (UniProt O14777) | -0.474
NEDD1 C66 (UniProt Q8NHV4) | 0.534
NFKB2 C738 (UniProt Q00653) | -0.156
NBAS C897 (UniProt A2RRP1) | -0.133
NLRX1 C331 (UniProt Q86UT6) | 0.232
NIBAN2 C466 (UniProt Q96TA1) | -0.157
NINL C1009 | -0.12
NCAPD3 C361 (UniProt P42695) | -0.405
NDUFAF7 C148 (UniProt Q7L592) | -0.883
NIT1 C203 (UniProt Q86X76) | 0.381
NOL6 C486 (UniProt Q9H6R4) | 0.112
NKD2 C229 | -0.293
NEMP1 C434 (UniProt O14524) | 0.621
NDUFB10 C119 (UniProt O96000) | 0.0177
NIPBL C2557 (UniProt Q6KC79) | -0.0561

Reference: the supplement of paper PMC11732987, “Enantioselective OTUD7B fragment discovery through chemoproteomics screening and high-throughput optimisation” (Communications Chemistry, 2025)
